Source: publication PMC10042835
No constants are given. Whether binding was seen depends on the method and setting.

Protein sequences, listed by entry. Tags and fused reporters are not part of them. Residues count along the entry.
UniProt P14713: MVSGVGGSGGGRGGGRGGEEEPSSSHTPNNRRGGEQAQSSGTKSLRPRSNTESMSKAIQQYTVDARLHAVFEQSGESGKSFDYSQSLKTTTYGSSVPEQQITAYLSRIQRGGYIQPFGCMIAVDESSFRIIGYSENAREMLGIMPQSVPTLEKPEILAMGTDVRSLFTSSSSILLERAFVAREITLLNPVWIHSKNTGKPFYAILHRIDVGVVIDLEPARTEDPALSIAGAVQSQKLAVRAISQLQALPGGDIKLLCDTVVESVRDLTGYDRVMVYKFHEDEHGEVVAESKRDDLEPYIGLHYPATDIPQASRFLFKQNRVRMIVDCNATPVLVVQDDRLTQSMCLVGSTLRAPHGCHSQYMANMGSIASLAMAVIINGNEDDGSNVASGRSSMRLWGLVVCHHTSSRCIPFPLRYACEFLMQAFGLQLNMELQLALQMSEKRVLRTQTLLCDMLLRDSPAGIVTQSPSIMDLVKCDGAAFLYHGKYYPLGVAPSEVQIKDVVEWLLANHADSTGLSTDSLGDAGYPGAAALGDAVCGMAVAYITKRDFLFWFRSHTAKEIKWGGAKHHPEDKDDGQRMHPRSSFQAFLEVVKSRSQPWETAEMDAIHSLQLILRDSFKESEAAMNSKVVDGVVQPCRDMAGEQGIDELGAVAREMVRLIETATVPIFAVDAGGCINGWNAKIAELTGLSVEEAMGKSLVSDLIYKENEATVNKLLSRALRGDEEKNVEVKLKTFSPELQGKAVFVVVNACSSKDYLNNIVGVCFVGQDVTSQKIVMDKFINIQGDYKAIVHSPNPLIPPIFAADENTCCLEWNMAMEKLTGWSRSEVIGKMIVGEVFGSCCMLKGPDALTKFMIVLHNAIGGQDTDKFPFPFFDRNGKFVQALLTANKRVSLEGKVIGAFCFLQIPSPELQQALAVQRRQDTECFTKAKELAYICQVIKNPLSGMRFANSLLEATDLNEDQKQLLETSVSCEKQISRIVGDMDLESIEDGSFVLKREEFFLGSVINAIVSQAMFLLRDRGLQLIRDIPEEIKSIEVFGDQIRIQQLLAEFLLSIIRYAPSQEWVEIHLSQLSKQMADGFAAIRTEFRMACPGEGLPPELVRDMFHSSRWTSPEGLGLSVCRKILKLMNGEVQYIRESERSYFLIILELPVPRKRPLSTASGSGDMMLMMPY
UniProt Q5E924, residues 67-420: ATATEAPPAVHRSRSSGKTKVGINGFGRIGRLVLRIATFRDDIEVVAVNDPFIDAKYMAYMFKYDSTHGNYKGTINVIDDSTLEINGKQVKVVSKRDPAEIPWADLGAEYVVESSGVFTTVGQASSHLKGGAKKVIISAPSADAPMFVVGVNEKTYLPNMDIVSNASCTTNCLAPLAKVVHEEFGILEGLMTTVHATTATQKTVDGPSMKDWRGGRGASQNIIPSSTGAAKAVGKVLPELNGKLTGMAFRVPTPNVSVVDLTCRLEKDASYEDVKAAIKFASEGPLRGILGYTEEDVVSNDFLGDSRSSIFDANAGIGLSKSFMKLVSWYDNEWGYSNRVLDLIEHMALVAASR

Biological target: phyB-GFP (Arabidopsis thaliana) (UniProt P14713)
Assay: fluorescence-activated particle sorting of phyB-GFP photobodies with LC-MS/MS; photobodies sorted by green fluorescence (Alexa Fluor 488 anti-GFP antibody) from sonicated nuclei of PHYB-GFP leaves; proteins enriched over the pre-sorted nuclear extract by more than 2σ

- binding: no binding
Substance: GAPCP2 (from UniProt Q5E924 67-420) (enzyme)
